Results as given in paper PMC6925144, “A prospective compound screening contest identified broader inhibitors for Sirtuin 1” (Scientific Reports, 2019).
Whole data set: some 3,200 compounds, median “TSA(with NAD+) / Primary screening (TSA) / delta Tm (K)” near -0.04, cut for the highest 2% near 0.37. Some of the results follow.

Sequences of proteins named here, by UniProt entry; tags and fusion partners are left off. Residues count along the entry.
UniProt Q96EB6, 2-747 limits assumed: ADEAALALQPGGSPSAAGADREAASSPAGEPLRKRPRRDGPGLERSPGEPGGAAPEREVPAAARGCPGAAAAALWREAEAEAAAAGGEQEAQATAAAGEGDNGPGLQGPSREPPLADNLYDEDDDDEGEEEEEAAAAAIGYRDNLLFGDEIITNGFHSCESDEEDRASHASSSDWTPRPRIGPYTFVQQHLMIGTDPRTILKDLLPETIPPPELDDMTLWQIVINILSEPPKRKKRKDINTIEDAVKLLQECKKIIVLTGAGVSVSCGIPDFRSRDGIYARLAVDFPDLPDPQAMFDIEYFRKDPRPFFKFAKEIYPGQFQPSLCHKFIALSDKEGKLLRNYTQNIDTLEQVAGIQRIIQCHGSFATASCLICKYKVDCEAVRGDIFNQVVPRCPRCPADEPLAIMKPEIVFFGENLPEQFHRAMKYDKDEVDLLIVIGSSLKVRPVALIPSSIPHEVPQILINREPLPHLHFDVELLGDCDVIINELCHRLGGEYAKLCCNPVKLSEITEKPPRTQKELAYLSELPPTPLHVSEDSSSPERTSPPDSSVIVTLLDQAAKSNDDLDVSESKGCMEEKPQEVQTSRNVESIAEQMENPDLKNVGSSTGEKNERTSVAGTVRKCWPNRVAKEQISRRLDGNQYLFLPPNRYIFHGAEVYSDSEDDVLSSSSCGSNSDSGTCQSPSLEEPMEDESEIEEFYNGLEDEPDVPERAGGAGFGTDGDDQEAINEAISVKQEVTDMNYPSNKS

target: NAD-dependent deacetylase Sirtuin 1 (human, UniProt Q96EB6); test: primary screen, delta tm; design: single well (n = 1, as 'the same TSA'); details: 10 µM

Row | SMILES | TSA(with NAD+) / Primary screening (TSA) / delta Tm (K)
1 | CCNCCO | -0.13
2 | CN(CC(=O)Nc1ccccc1Cl)C(=O)CNc1cccc(OC(F)(F)F)c1 | -0.06
3 | NC(=O)C(Cc1ccccc1)NC(=O)CCc1nc2ccccc2[nH]1 (stereo not drawn) | -0.32
4 | C=CCn1c(SCC(=O)NC(C)c2ccco2)nc2ccsc2c1=O (stereo not drawn) | -0.05
5 | Cc1nc2ccccc2c(C)c1C(=O)OCC(N)=O | 0.03
6 | NC(=O)c1cncc(Oc2nc3ccccc3o2)c1 | -0.18
7 | NCCS(=O)(=O)CCN | -0.04
8 | CC(C)c1ccc(C2(C)CC(=O)NC2=O)cc1 (stereo not drawn) | -0.11
9 | O=C(CCCNC(=O)c1ccc(Cl)cc1)Nc1cccc(S(=O)(=O)N2CCOCC2)c1 | 0.01
10 | O=C(NC1=NCCS1)c1cc(Cl)ccc1O | -0.01
11 | CCC1CCCCN1c1ncnc2c(C)csc12 (stereo not drawn) | -0.01
12 | Cc1ccc(S(=O)(=O)CCC(=O)OCc2nnc(-c3ccc([N+](=O)[O-])cc3)o2)cc1 | -0.28
13 | Cn1ncc2c(N3CCC(C(=O)Nc4ccccc4O)CC3)ncnc21 | -0.18
14 | Cc1ccnc(NC(=O)C2CCN(C(=O)c3cccc(S(=O)(=O)NCC4CCCO4)c3)CC2)c1 (stereo not drawn) | -0.28
15 | COc1ccc2c(COC(=O)c3ccc(=O)n(Cc4ccccc4)n3)cc(=O)oc2c1 | -0.13
16 | CCOc1ccc(S(=O)(=O)N2CCOCC2)cc1NC(=O)C1=COCCO1 | -0.11
17 | O=C1NCCN1c1cccc(N2C(=O)Cc3ccccc3C2=O)c1 | -0.31
18 | NC(=O)NC(CC(=O)OCC(=O)NC12CC3CC(CC(C3)C1)C2)c1cccc(Oc2ccccc2)c1 (stereo not drawn) | 0.07
19 | CC(=O)c1c[nH]c(C(=O)NCCc2ccc(-c3csc(C)n3)s2)c1 | -0.13
20 | OCCNc1ccc2nnc(C(F)(F)F)n2n1 | -0.09
21 | Cc1ncc(CN2CCC(Nc3ccc4nnnn4n3)C(C)C2)s1 (stereo not drawn) | 0.09
22 | Cc1ccc(C(C)(C)C)cc1SCC(=O)Nc1cc(C(N)=O)cc(C(N)=O)c1 | 0.06
23 | NC(=O)C1CCN(c2ncnc3c2c(-c2ccccc2)cn3-c2ccc(Cl)cc2)CC1 | 0.06
24 | O=C(Nc1cc(S(=O)(=O)N2CCOCC2)ccc1O)C1=COCCO1 | -0.16

Row | SMILES | TSA(with NAD+) / Primary screening (TSA) / delta Tm (K)
25 | CC1CN=C(Nc2ccc(Cl)c(Cl)c2)S1 (stereo not drawn) | 0.15
26 | O=C(Nc1cccc(S(=O)(=O)N2CCOCC2)c1)c1ccccc1Cc1ccccc1 | -0.09
27 | Brc1cccc(-c2nc(CSc3nnc(NCc4ccco4)s3)cs2)c1 | 0.22
28 | NC(=O)C1CCN(c2ncnc3cc(-c4ccc(Br)cc4)sc23)CC1 | -0.03
29 | Cc1ccc(S(=O)(=O)N(C)c2ccc(C(=O)NCCCN3CCC(C(N)=O)CC3)cc2)cc1 | -0.14
30 | O=C(Nc1cccc(S(=O)(=O)NCc2ccco2)c1)C1CCN(C(=O)Nc2ccccc2)CC1 | 0.05
31 | Cc1ccc(Cc2cnc(NC(=O)CC(c3ccccc3)c3ccccc3)s2)cc1 | 0.08
32 | O=C1NC(C(=O)O)=CC(c2ccccc2C(F)(F)F)N1 (stereo not drawn) | -0.12
33 | COC(C)[C@@H](C)N (stereo partly drawn) | -0.21
34 | CC1CCN(C(=O)C23CC4CC(C2)CC(c2ccccc2)(C4)C3)CC1 | -0.19
35 | C=CCN(CC=C)C(CNc1ccc2nnnn2n1)C(C)C (stereo not drawn) | -0.13
36 | O=C(Nc1cccc(S(=O)(=O)NCc2ccco2)c1)c1cc(-c2ccccc2)nc2ccccc12 | 0.19
37 | O=C(c1n[nH]c2c1CCC2)N(CCc1ccccc1)Cc1ccncc1 | 0.07
38 | C=CCOc1cccc(C2C(C(=O)c3ccco3)=C(O)C(=O)N2CCCN2CCOCC2)c1 (stereo not drawn) | -0.11
39 | Cc1ccc(C(=Nc2c(C)cc(C)cc2C)c2ccc(C)cc2)cc1 | -0.03
40 | Cc1csc2c(N3CCC4CCC(C3)N4C)ncnc12 (stereo not drawn) | -0.02
41 | Cc1sc2nc(-c3cccs3)nc(N3CCC(C(N)=O)CC3)c2c1C | 0.53
42 | C=CCC(C)N (stereo not drawn) | -0.13
43 | Cc1ccc2c(COC(=O)c3cccc(S(=O)(=O)N(C)c4ccccc4)c3)cc(=O)oc2c1C | -0.06
44 | Cc1[nH]ccc1C(=O)N(C)C1CC2CCC(C1)N2C(=O)OC(C)(C)C (stereo not drawn) | -0.06
45 | NCC(CN)(CO)CO | -0.12
46 | COC(=O)C[C@@H](C)OC(=O)c1cc(F)ccc1F | -0.01
47 | COc1ccccc1NS(=O)(=O)c1cccc(NC(=O)Cn2[nH]c(=O)c3ccccc3c2=O)c1 | -0.03
48 | CCN1CCN(c2ccc(NC(=O)NC(C)CCc3ccc(O)cc3)c(C)c2)CC1 (stereo not drawn) | -0.22

Row | SMILES | TSA(with NAD+) / Primary screening (TSA) / delta Tm (K)
49 | O=C1/C(=C/NNC(=O)C23CC4CC(CC(C4)C2)C3)c2ccccc2C(=O)N1Cc1ccccc1 | 0.56
50 | O=C(NCc1cccc(C(F)(F)F)c1)c1sc2ccccc2c1Cl | -0.06
51 | CCCOc1ccc(C(=O)C2=C(O)C(=O)N(CCN3CCOCC3)C2c2cccs2)cc1 (stereo not drawn) | -0.13
52 | O=C1NC2(CCc3ccccc3C2)C(=O)N1Cc1nnc(-c2ccc(Cl)cc2)o1 (stereo not drawn) | -0.03
53 | Cc1nc(CN2CCCN(Cc3ccc(C(N)=O)cc3)CC2)no1 | -0.14
54 | Cc1onc(-c2ccccc2)c1C(=O)NC1CCCc2ccccc21 (stereo not drawn) | -0.05
55 | Cc1cnc(C(=O)N2CCCC2C(=O)Nc2ccccc2)cn1 (stereo not drawn) | -0.23
56 | COc1cc(C(=O)Nc2ncc(Cc3cccc(C)c3)s2)ccc1OCC(=O)N1CCOCC1 | -0.09
57 | COCCCNC(=O)/C(=C/c1ccc(OCc2ccccc2)cc1)c1nc2ccccc2[nH]1 | -0.09
58 | CCC(N)CO (stereo not drawn) | 0.09
59 | NC(=O)C1CCCCN1C(=O)CSc1nc2cc(Cl)ccc2[nH]1 (stereo not drawn) | 0.02
60 | CN(Cc1nc(-c2cccnc2)no1)Cc1c[nH]nc1-c1cccnc1 | -0.01
61 | COC(=O)c1ccc2[nH]c3c(c2c1)CN(c1cn[nH]c(=O)c1Cl)CC3 | -0.03
62 | O=C(Nc1cccc(S(=O)(=O)NCc2ccco2)c1)c1ccccc1SCC(=O)N1CCCC1 | -0.05
63 | COc1cccc(N2CCN(CCC(=O)Nc3ccc(C(N)=O)cc3)CC2)c1 | -0.18
64 | CCn1cnnc1-c1cccc(NC(=O)c2cc(C(N)=O)cn2C)c1 | -0.11
65 | COc1ccccc1NS(=O)(=O)c1ccc(NC(=O)CNC(=O)C23CC4CC(CC(C4)C2)C3)cc1 | 0.08
66 | Cc1cccc(N2CCN(C(=O)c3ccc(C(C)(C)C)cc3)CC2)c1C | 0.02
67 | Cc1nc(N2CCN(Cc3ccncc3)CC2)c2c(-c3cccs3)csc2n1 | -0.01
68 | O=c1oc(-c2ccc(F)cc2)nn1Cc1nc2ccccc2s1 | -0.11
69 | O=C1c2ccccc2NC(c2ccc(Cl)cc2)N1C1CC1 (stereo not drawn) | -0.06
70 | CC1CCCN(C(=O)c2ccc(/C=C/c3ccc4ccccc4n3)cc2)C1 (stereo not drawn) | -0.24
71 | COc1ccc(N2C(=O)C(=O)N(CC(=O)Nc3ccccc3SCc3ccccc3)C2=O)cc1 | 0.06
72 | O=C(CSc1ccccc1)Nc1cc2c(=O)[nH]cnc2cc1F | -0.01

Row | SMILES | TSA(with NAD+) / Primary screening (TSA) / delta Tm (K)
73 | Cc1cnn(C2CCCN(C(=O)c3ccc(C(N)=S)cc3)C2)c1 (stereo not drawn) | -0.11
74 | Cc1nc(CN2CCN(S(=O)(=O)c3cc(C(N)=O)n(C)c3)CC2)cs1 | -0.05
75 | CC(C)N(CC(=O)Nc1cc(C(N)=O)cc(C(N)=O)c1)Cc1ccccc1 | -0.01
76 | O=C(COC(=O)c1ccc(CNS(=O)(=O)c2ccc(F)c(Cl)c2)cc1)c1ccccc1 | 0.01
77 | O=C(Cc1cccnc1)Nc1ccccc1N1CCC(CO)CC1 | -0.14
78 | Cc1ccn2c(=O)cc(Cn3cnc4c(oc5ccccc54)c3=O)nc2c1 | -0.12
79 | Cc1ccc(C23CC4CC(CC(C(=O)N5CCN(S(=O)(=O)c6ccccc6)CC5)(C4)C2)C3)cc1 | -0.02
80 | O=C(Nc1ccccc1O)C1CCN(c2ncnc3scc(-c4ccc(F)cc4)c23)CC1 | 0.05
81 | Cc1nc2c3ccccc3nc(N3CCC(C4(C)NC(=O)NC4=O)CC3)n2n1 (stereo not drawn) | -0.01
82 | N#C/C(=C\c1ccc(-c2ccc(Cl)c(C(F)(F)F)c2)o1)C(N)=S | 0.25
83 | C/C(=N/N)c1ccc2c(c1)-c1ccccc1C2 | -0.14
84 | O=C1NC(=S)NC(=O)C1=NNc1ccc(OC(F)F)cc1 | -0.01
85 | O=C(O)[C@H](O)[C@@H](O)C(=O)O | -0.11
86 | CCOc1ccc(C2C(C(=O)c3cccc(OC)c3)=C(O)C(=O)N2CCCN2CCOCC2)cc1 (stereo not drawn) | -0.11
87 | COc1ccc(NC(=O)CSc2nnc(Nc3ccc(SC(F)F)cc3)s2)cc1OC | 0.28
88 | C#CCCCN | 0.09
89 | CC(C)COc1ccc(C(=O)C2=C(O)C(=O)N(CCN3CCOCC3)C2c2cccnc2)cc1 (stereo not drawn) | -0.01
90 | Cc1cc(NC(=O)CCc2nc3ccccc3[nH]2)ccc1N1CCCC1 | -0.15
91 | O=S(=O)(/C=C/c1ccccc1)N1CCN(c2ncnc3sc4c(c23)CCCCC4)CC1 | 0.07
92 | CC(C)Oc1ccc(C(=O)C2=C(O)C(=O)N(CCCN3CCOCC3)C2c2cccs2)cc1 (stereo not drawn) | 0.01
93 | COc1ccc(C(=O)C2=C(O)C(=O)N(CCCN3CCOCC3)C2c2ccco2)cc1Cl (stereo not drawn) | -0.11

From no. 29 up to 32, copied from above:
Row | SMILES | TSA(with NAD+) / Primary screening (TSA) / delta Tm (K)
29 | Cc1ccc(S(=O)(=O)N(C)c2ccc(C(=O)NCCCN3CCC(C(N)=O)CC3)cc2)cc1 | -0.14
30 | O=C(Nc1cccc(S(=O)(=O)NCc2ccco2)c1)C1CCN(C(=O)Nc2ccccc2)CC1 | 0.05
31 | Cc1ccc(Cc2cnc(NC(=O)CC(c3ccccc3)c3ccccc3)s2)cc1 | 0.08
32 | O=C1NC(C(=O)O)=CC(c2ccccc2C(F)(F)F)N1 (stereo not drawn) | -0.12
